The list shows only some results of the screen, not a fair sample: it gathers tests that were run many times, whatever their T/C, doses with no T/C, and many T/C values between a quarter and a half above the control. Other doses and runs of a compound stand elsewhere. T/C: endpoint of the treated group in % of that of the vehicle group. Some entries give survivors of the animals treated and no T/C: the source files T/C as zero there, which appears to mark a toxic dose or a test without result, not a measured value. Some survivor counts are full or nearly so, which does not show that the dose was tolerated: survival well below the control is almost never listed, so the zero probably covers shortened survival too. Survivors were counted at the toxicity check, usually on the fifth day, unless a day is given; later deaths do not show. Schedule codes are those of the source, read here as Q, the interval in days (D) or hours (H), X, the number of doses. Some entries hold several experiments; their values stand side by side, smallest first. Some structures stand for samples that the source files as different forms (salt, stereo form or complex); doses refer to the form tested. Marks such as (2×) give the number of equal values in this list. Where survival is the endpoint, this PubChem deposit counts one and a half times the control or more as active, and values a quarter to a half above the control carry no call in these data; other NCI protocols may use other cut-offs. Some T/C values are followed by the survivors on the day toxicity was checked, most often the fifth; where none is given, no animal had died by that day.
System: P388 leukemia ip, CD2F1 mice, survival T/C
Assay: NCI In Vivo Anticancer Drug Screen. Data for tumor model P388 Leukemia (intraperitoneal) in CD2F1 (CDF1) mice
Settings: T/C endpoint: median survival time, higher T/C = longer survival
[1] = dose: 60.0 mg/kg/injection, schedule: Q01DX005 (ip), vehicle: saline with Tween-80
[2] = dose: 120.0 mg/kg/injection, schedule: Q01DX005 (ip), vehicle: saline with Tween-80
[3] = dose: 240.0 mg/kg/injection, schedule: Q01DX005 (ip), vehicle: saline with Tween-80
[4] = dose: 200.0 mg/kg/injection, schedule: Q01DX005 (ip), vehicle: saline with Tween-80
[5] = dose: 12.5 mg/kg/injection, schedule: Q01DX009 (ip), vehicle: saline
[6] = dose: 200.0 mg/kg/injection, schedule: Q01DX005 (ip), vehicle: Klucel (hydroxypropylcellulose) (HPC)

`COc1ccc2nc3ccccc3c(SCCCCCCSc3c4ccccc4nc4ccc(OC)cc34)c2c1` was tested, and the survivor count (dose: 120.0 mg/kg/injection, schedule: Q01DX005 (ip), vehicle: Klucel (hydroxypropylcellulose) (HPC)) was 6 of 6 and the survivor count (dose: 240.0 mg/kg/injection, schedule: Q01DX005 (ip), vehicle: Klucel (hydroxypropylcellulose) (HPC)) was 6 of 6.
For `CN1CCN(C)C(=O)C1=O`, the survivor count (dose: 100.0 mg/kg/injection, schedule: Q04DX003 (ip), vehicle: suspension in saline) was 2 of 6, the survivor count (dose: 200.0 mg/kg/injection, schedule: Q04DX003 (ip), vehicle: suspension in saline) was 0 of 6 and the survivor count (dose: 400.0 mg/kg/injection, schedule: Q04DX003 (ip), vehicle: suspension in saline) was 0 of 6.
In the case of `O=[N+]([O-])c1ccc2c(NCCCCCCCCNc3c4ccccc4nc4cc([N+](=O)[O-])ccc34)c3ccccc3nc2c1`, the T/C (dose: 0.63 mg/kg/injection, schedule: Q01DX009 (ip), vehicle: other) is reported as 129 % of control, the T/C (dose: 1.25 mg/kg/injection, schedule: Q01DX009 (ip), vehicle: other) is reported as 129 % of control and the T/C (dose: 2.5 mg/kg/injection, schedule: Q01DX009 (ip), vehicle: other) is reported as 132 % of control. For the same compound, the T/C (dose: 5.0 mg/kg/injection, schedule: Q01DX009 (ip), vehicle: other) was 145 % of control, the T/C (dose: 10.0 mg/kg/injection, schedule: Q01DX009 (ip), vehicle: other) was 145 % of control and the T/C (dose: 20.0 mg/kg/injection, schedule: Q01DX009 (ip), vehicle: other) was 132 % of control.
With `Cc1cccc(C)c1Nc1nnc(-c2ccccc2)s1` the survivor count [1] was 6 of 6, the survivor count [2] was 6 of 6 and the survivor count [3] was 6 of 6.
`CC1CN1P(=O)(c1ccccc1)N1CC1C` (configuration not stated) was tested, and the survivor count (dose: 100.0 mg/kg/injection, schedule: Q01DX005 (ip), vehicle: saline with Tween-80) was 4 of 6, the survivor count [4] was 0 of 6 and the survivor count (dose: 200.0 mg/kg/injection, schedule: Q01DX005 (ip), vehicle: suspension in saline) was 0 of 6.
`CC1(C)CC(=O)C=C(NC2CCCCC2)C1` was tested, and the survivor count (dose: 200.0 mg/kg/injection, schedule: Q01DX009 (ip), vehicle: saline with Tween-80) was 6 of 6.
With `COc1cc(NC(C)=O)c(OC)cc1N` the survivor count (dose: 100.0 mg/kg/injection, schedule: Q04DX002 (ip), vehicle: saline) was 0 of 6 and 1 of 6, the survivor count (dose: 200.0 mg/kg/injection, schedule: Q04DX002 (ip), vehicle: saline) was 0 of 6 and the survivor count (dose: 400.0 mg/kg/injection, schedule: Q04DX002 (ip), vehicle: saline) was 0 of 6.
`CCCCCCCCCCCCCCCC[N+]1(CC)CCOCC1` was tested, and the T/C (dose: 3.12 mg/kg/injection, schedule: Q01DX009 (ip), vehicle: saline) was 131 % of control [5 of 6 alive], the T/C [5] was 133 % of control [5 of 6 alive] and the survivor count [5] was 3 of 6. The survivor count (dose: 25.0 mg/kg/injection, schedule: Q01DX009 (ip), vehicle: saline) was 2 of 6 (2×) and 3 of 6, the survivor count (dose: 50.0 mg/kg/injection, schedule: Q01DX009 (ip), vehicle: saline) was 0 of 6 (2×), 1 of 6, 2 of 6 and the survivor count (dose: 100.0 mg/kg/injection, schedule: Q01DX009 (ip), vehicle: saline) was 0 of 6 (2×). For the same compound, the survivor count (dose: 200.0 mg/kg/injection, schedule: Q01DX009 (ip), vehicle: saline) was 0 of 6 (2×).
With `CCC[CH2][Sn]1([CH2]CCC)[O]OC(c2ccccc2)[O]1` (configuration not stated) the T/C (dose: 0.75 mg/kg/injection, schedule: Q01DX009 (ip), vehicle: saline with Tween-80) was 127 % of control, the T/C (dose: 1.32 mg/kg/injection, schedule: Q01DX009 (ip), vehicle: other) was 127 % of control and the T/C (dose: 1.5 mg/kg/injection, schedule: Q01DX009 (ip), vehicle: saline with Tween-80) was 127 % of control. The T/C (dose: 2.0 mg/kg/injection, schedule: Q01DX009 (ip), vehicle: other) was 127 % of control, the T/C (dose: 3.0 mg/kg/injection, schedule: Q01DX009 (ip), vehicle: other) was 140 % of control and the T/C (dose: 3.0 mg/kg/injection, schedule: Q01DX009 (ip), vehicle: saline with Tween-80) was 136 % of control. The survivor count (dose: 6.0 mg/kg/injection, schedule: Q01DX009 (ip), vehicle: saline with Tween-80) was 5 of 6, the survivor count (dose: 12.0 mg/kg/injection, schedule: Q01DX009 (ip), vehicle: saline with Tween-80) was 0 of 6 and the survivor count (dose: 24.0 mg/kg/injection, schedule: Q01DX009 (ip), vehicle: saline with Tween-80) was 0 of 6. For the same compound, the T/C (dose: 2500.0 micrograms/kg/injection, schedule: Q04DX003 (ip), vehicle: saline with Tween-80) was 135 % of control.
In the case of `Nc1cccc(NCc2ccncc2)n1`, the T/C (dose: 50.0 mg/kg/injection, schedule: Q01DX005 (ip), vehicle: Klucel (hydroxypropylcellulose) (HPC), evaluated on day 20) is reported as 109 [5 of 6 alive] and 122 % of control, the T/C (dose: 50.0 mg/kg/injection, schedule: Q01DX005 (ip), vehicle: Klucel (hydroxypropylcellulose) (HPC), evaluated on day 30) is reported as 105 and 108 % of control and the survivor count [6] is reported as 1 of 4.
With `CCNc1nc(NC(C)C)nc(-c2ccncc2)n1` the survivor count [6] was 0 of 6.
In the case of `NC(=O)C(N)C(F)c1ccccc1` (configuration not stated), the survivor count [3] is reported as 5 of 6.
With `Cn1c2ccccc2c(=Nc2ccc(S(N)(=O)=O)cc2)c2ccccc21` the survivor count (dose: 50.0 mg/kg/injection, schedule: Q01DX005 (ip), vehicle: saline with Tween-80) was 6 of 6 and the survivor count [4] was 3 of 6.
In the case of `CCOC(=O)/N=[N+](\[O-])c1cccc([N+](=O)[O-])c1`, the survivor count (dose: 400.0 mg/kg/injection, schedule: Q01DX001 (ip), vehicle: saline with Tween-80) is reported as 0 of 6.
`Cn1c(=O)c2nsnc2n(C)c1=O` was tested, and the T/C (dose: 200.0 mg/kg/injection, schedule: Q04DX002 (ip), vehicle: Klucel (hydroxypropylcellulose) (HPC)) was 125 % of control and the survivor count (dose: 400.0 mg/kg/injection, schedule: Q04DX002 (ip), vehicle: Klucel (hydroxypropylcellulose) (HPC)) was 0 of 6.
In the case of `[I][Pt+2][I].[NH-]C(c1ccccc1)C([NH-])c1ccccc1` (configuration not stated), the T/C (dose: 50.0 mg/kg/injection, schedule: Q04DX002 (ip), vehicle: saline with Tween-80) is reported as 128 % of control and the T/C (dose: 100.0 mg/kg/injection, schedule: Q04DX002 (ip), vehicle: saline with Tween-80) is reported as 128 % of control.
For `CCCCCCCCCCCN(C)C`, the survivor count [4] was 0 of 6.
With `O=C1c2ccccc2C(=O)c2c1cc1c(O)c(CN3CCCC3)ccc1c2O` the survivor count [4] was 6 of 6.
In the case of `Cc1cc(N(CCCl)CCCl)ccc1C=Nc1ccc(F)cc1`, the T/C (dose: 100.0 mg/kg/injection, schedule: Q01DX009 (ip), vehicle: saline with Tween-80) is reported as 140 % of control and the T/C (dose: 200.0 mg/kg/injection, schedule: Q04DX003 (ip), vehicle: saline with Tween-80) is reported as 127 % of control.
In the case of `COC(=O)c1cn(C2OC(CO)C(O)C2O)c2ncnc(N)c12` (configuration not stated), the survivor count (dose: 30.0 mg/kg/injection, schedule: Q01DX005 (ip), vehicle: saline with Tween-80) is reported as 6 of 6, the survivor count [1] is reported as 1 of 6 and the survivor count [2] is reported as 3 of 6. For the same compound, the survivor count [3] was 0 of 6.
For `O=C(NCCCCCCNC(=O)c1ccccc1)c1ccccc1`, the survivor count (dose: 400.0 mg/kg/injection, schedule: Q01DX005 (ip), vehicle: Klucel (hydroxypropylcellulose) (HPC)) was 6 of 6.
For `CNC(=O)OCc1cn(-c2ccc(Cl)c(Cl)c2)nc1COC(=O)NC`, the survivor count (dose: 0.78 mg/kg/injection, schedule: Q01DX009 (ip), vehicle: distilled water + Tween-80) was 6 of 6, the survivor count (dose: 1.56 mg/kg/injection, schedule: Q01DX009 (ip), vehicle: distilled water + Tween-80) was 6 of 6 and the survivor count (dose: 6.25 mg/kg/injection, schedule: Q01DX009 (ip), vehicle: distilled water + Tween-80) was 6 of 6. For the same compound, the survivor count (dose: 12.5 mg/kg/injection, schedule: Q01DX009 (ip), vehicle: distilled water + Tween-80) was 6 of 6, the survivor count (dose: 25.0 mg/kg/injection, schedule: Q01DX009 (ip), vehicle: distilled water + Tween-80) was 6 of 6 and the survivor count (dose: 50.0 mg/kg/injection, schedule: Q01DX009 (ip), vehicle: distilled water + Tween-80) was 6 of 6. The survivor count (dose: 100.0 mg/kg/injection, schedule: Q01DX009 (ip), vehicle: distilled water + Tween-80) was 3 of 6 and the survivor count (dose: 200.0 mg/kg/injection, schedule: Q01DX009 (ip), vehicle: distilled water + Tween-80) was 2 of 6 and 4 of 6.

Reference: PubChem BioAssay AID330 (DTP/NCI, 2004)
